Data on 1 substance can be found in paper PMC7140450.

Chains of the proteins cited; added tags and fusions are not shown.
UniProt P09936: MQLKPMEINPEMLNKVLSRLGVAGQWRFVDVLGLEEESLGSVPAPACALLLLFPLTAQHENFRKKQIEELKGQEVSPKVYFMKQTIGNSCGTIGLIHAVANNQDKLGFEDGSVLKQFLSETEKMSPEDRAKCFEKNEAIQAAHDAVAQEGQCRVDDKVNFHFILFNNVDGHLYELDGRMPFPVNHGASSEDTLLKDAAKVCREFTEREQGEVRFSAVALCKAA
UniProt Q14247: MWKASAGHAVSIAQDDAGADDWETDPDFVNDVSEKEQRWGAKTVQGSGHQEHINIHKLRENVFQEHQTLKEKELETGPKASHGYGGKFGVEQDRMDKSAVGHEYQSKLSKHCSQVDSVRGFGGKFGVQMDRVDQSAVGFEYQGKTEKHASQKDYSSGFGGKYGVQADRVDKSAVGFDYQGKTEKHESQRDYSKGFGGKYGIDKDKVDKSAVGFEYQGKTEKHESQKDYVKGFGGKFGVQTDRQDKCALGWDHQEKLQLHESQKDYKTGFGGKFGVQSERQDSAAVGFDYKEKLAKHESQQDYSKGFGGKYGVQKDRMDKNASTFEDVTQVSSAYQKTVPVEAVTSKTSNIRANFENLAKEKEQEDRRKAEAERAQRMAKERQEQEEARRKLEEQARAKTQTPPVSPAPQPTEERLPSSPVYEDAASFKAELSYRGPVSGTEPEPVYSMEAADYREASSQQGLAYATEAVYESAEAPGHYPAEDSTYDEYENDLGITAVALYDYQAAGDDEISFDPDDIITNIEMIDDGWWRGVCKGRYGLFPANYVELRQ

For this experiment, the target named is FLAG-tagged UCHL1 (ubiquitin C-terminal hydrolase L1) (UniProt P09936). The experiment can be described thus: affinity purification with mass spectrometry; lysate of SUNE1 cells stably transfected with FLAG-UCHL1; IP with anti-FLAG or IgG overnight at 4 °C, protein A/G Sepharose beads, SDS-PAGE, indicated bands analysed by mass spectrometry.

These are yes or no findings as the source states them, for the method shown. In cells and extracts the contact can be indirect. These calls come from enrichment with a bait or labelling near it, and not all partners need be listed.

In the case of “endogenous CTTN (cortactin) of SUNE1 cells (from UniProt Q14247 1-550)”, the binding entry is “binds”.
